Primary screen of a compound library

Chains of the proteins cited; added tags and fusions are not shown. Residues count along the entry.
UniProt Q4DA54, 1-478: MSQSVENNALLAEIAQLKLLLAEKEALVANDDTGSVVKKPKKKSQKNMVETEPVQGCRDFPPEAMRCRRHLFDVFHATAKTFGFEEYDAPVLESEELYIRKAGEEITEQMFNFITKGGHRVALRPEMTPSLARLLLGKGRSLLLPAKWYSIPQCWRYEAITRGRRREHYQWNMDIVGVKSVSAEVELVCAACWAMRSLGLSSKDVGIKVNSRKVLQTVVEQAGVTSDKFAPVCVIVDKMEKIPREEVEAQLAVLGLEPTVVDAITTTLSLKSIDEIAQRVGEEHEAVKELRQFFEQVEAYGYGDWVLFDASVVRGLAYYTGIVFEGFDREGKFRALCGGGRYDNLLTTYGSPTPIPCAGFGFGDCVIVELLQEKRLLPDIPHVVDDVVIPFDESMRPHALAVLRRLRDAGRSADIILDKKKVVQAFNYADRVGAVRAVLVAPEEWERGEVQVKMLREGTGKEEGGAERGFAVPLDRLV

Measurements from “University of Dundee, Small-Polar-MMV Screening Library” (2021), ChEMBL document CHEMBL3988442.

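Enzyme assay of histidyl-tRNA synthetase; the read-out is not stated. Target: Histidine-tRNA ligase, Trypanosoma cruzi CL Brener (UniProt Q4DA54). Compounds at 30 µM. Direction is inferred from retests: higher values go with stronger inhibition. Size under these conditions: about 69,000 compounds, about 31 of them at 50% or above in at least one test.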

Each number is a percent effect as filed.
The record does not define 0% and 100%; most values in the screen are far below 50% and negative numbers occur (in some assays of this library far below -100).
This is an unselected part of the compounds tested.

structure	effect
CC(O)CN1CCN(C(=O)c2cn(-c3ccccc3Cl)nn2)CC1 (stereo not drawn)	-3.39
Fc1ccc(Cc2cccc(C3CCN(C4CCOCC4)CC3)n2)cc1	14.44
COc1cc(CNc2cnn(CC(F)F)c2)ccc1O	2.312
Cc1ccc(S(=O)(=O)NC[C@H]2OC[C@@H](NCc3ccccn3)[C@@H]2O)cc1	-1.087
N#Cc1cc(S(N)(=O)=O)ccc1NC1CCc2ccc(F)cc21 (stereo not drawn)	13.79
Cc1cccc(-c2nc(C)nn2CC(=O)N(C)C2CC2)c1	1.527
CC(C)CCN1C[C@H]2C[C@H](C(=O)NCC(C)C)[C@@H](C1)O2	11.11
CN(C)CCNc1c(-c2ccccc2)c(=O)c1=O	7
COC1(CNS(=O)(=O)c2ccccc2Br)CCSC1 (stereo not drawn)	-1.111
Cc1cc(CC(=O)NCC(O)COc2ccc(F)c(F)c2)n[nH]1 (stereo not drawn)	6.627
Cc1nc(C)n(CC2CCCN(CCC(=O)NC3CCCCC3)C2)n1 (stereo not drawn)	7.289
CCCc1cc(C(=O)N[C@H](C)[C@@H](O)c2ccc(O)cc2)n(C)n1	9.453
O=C1CO[C@H]2CCN(C(=O)c3ccc4c(c3)CCCC4)CC[C@@H]2N1	4.545
CCc1c(O)nc2nc(N3CCCC3)nn2c1C	1.327
Cn1ccnc1CN1CCN(c2ccc(C#N)cn2)CC1	1.916
CN1CCCCC12CCN(c1nncs1)C2 (stereo not drawn)	2.151
COCCN(Cc1sccc1C)C(=O)COc1cccnc1	2.646
COc1cc(F)ccc1-c1nc2c([nH]1)c(C1CC1)nn2C	4.972
CCN(CCCc1ccccc1)CC1(C)Cc2c(N)nc(N)nc2O1 (stereo not drawn)	4.545
Cn1cc(N2CCC(NC(=O)c3ccccc3Cl)C2=O)cn1 (stereo not drawn)	3.488
CC(C)Cc1cc(C(=O)NCC2CCCN(c3ccccn3)C2)on1 (stereo not drawn)	3.896
CCOCCC(=O)Nc1cccc(Cl)c1COC	3.704
O=C(O)c1ccccc1CN1CCC2(Cc3ccccc3CNC2=O)C1 (stereo not drawn)	8.876
Cc1cccc(CN2CCC[C@@H]3CN(C(=O)c4ccco4)C[C@@H]32)n1	7.438
CCC1=N[C@@]2(CC[C@@H]3CN(CC4CC4)C[C@@H]32)C(=O)N1CC1CC1	9.756
C=C(C)COc1ccccc1C(=O)NCc1nc(C)cc(=O)[nH]1	2.146
CCN1CCC2(CC1)NC(=O)c1cc(Br)ccc1-n1nnnc12	2.212
CC(=O)N[C@H]1CN(CC(=O)NCc2ccccc2C)C[C@@H]1C(C)C	8.247
COCCN1CCc2nc(SCc3ccc(F)cc3)[nH]c(=O)c2C1	16
Cc1ccc(OCC(C)NS(C)(=O)=O)cc1C (stereo not drawn)	3.333
Cc1oc(C(=O)O)cc1S(=O)(=O)Nc1c(F)cccc1-n1cccn1	3.734
Nc1c(N2CCCCC2)ncnc1N1CCOCC1	5.682
COc1cccc(Nc2nc(C3CCNCC3)c3ccccn23)c1	17.24
CN(C)C(=O)CCC(=O)NCc1cccnc1-n1cnc2ccccc21	0.8264
O=C(c1ccnc(N2CCOC(C(F)(F)F)C2)c1)N1CCOCC1 (stereo not drawn)	7.921
Cc1nn(C)c(N2CCOCC2)c1CNCc1ccoc1C	6.122
OC[C@H]1CN(Cc2c(Cl)cccc2Cl)C[C@H]1CN1CCCCC1	4.348
CN(C)c1ccc(C(=O)N2CCCN(C3CCCCC3)CC2)cn1	3.627
CC(C)C(C#N)N1CCN(Cc2nccn2CC(F)(F)F)CC1 (stereo not drawn)	1.948
Cc1ccc(N2CCC3(CCCN(C(=O)c4cccnc4)C3)C2)nn1 (stereo not drawn)	0.5464
c1cnn(CC2CN(Cc3csc(C4CCCCC4)n3)CCO2)c1 (stereo not drawn)	3.468
Cn1cccc1C(=O)N1CCC2(CCCN(CC3CCC3)C2=O)C1 (stereo not drawn)	9.184
CCS(=O)(=O)N1C[C@@H](C(=O)NC(C)C)[C@@]2(Cc3ccccc3C(=O)N2)C1	4.545
CN1N=C(C(=O)N2CCN(c3ncccc3Cl)CC2)CCC1=O	-0.5405
Cc1nc(CN2CCCC(NCCOc3ccccc3C#N)C2)no1 (stereo not drawn)	0.5714
CNC(=O)C(C)NC(=O)c1ccc(Oc2cccnc2)cc1 (stereo not drawn)	5.202
COc1cccc(C(=O)N2CCN(C(=O)CCn3ccnc3)CC2)c1	5.195
Cc1nc(CNCC2CNc3ccnn3C2)cs1 (stereo not drawn)	0
Cc1cnn(CCCNC(=O)C2CCCCN2Cc2cccnc2)c1 (stereo not drawn)	10.39
CN(Cc1cnn(C)c1)C(=O)NCCc1ccc2c(c1)OCO2	9.038
CC(C)OCCC(=O)Nc1c(-c2ccc(F)cc2)ncn1C	6.061
Fc1ccc(CN2CCCC3(COCCN(Cc4c[nH]nn4)C3)C2)cc1 (stereo not drawn)	3.922
O=C(NCCCNc1ccccc1)c1scnc1Cl	3.396
Cc1noc(C)c1CC(=O)OCc1nc(N)c2ccccc2n1	13.73
CC(C)c1nnc2sc(CC3CN(C(C)C)CCO3)nn12 (stereo not drawn)	-1.212
Cc1nn(C(C)(C)C)c(C)c1C(=O)NCC1(C(N)=O)CCOCC1	9.877
NC(=O)Cn1cc(NC(=O)NCC2CCN(c3ccccc3)C2)cn1 (stereo not drawn)	8.247
CCc1nc(CN(C(C)=O)C2CCN(CCc3ccncc3)C2)no1 (stereo not drawn)	3.429
Cc1noc([C@@H]2C[C@H]3OCC[C@H]3N(S(=O)(=O)N(C)C)C2)n1	7.035
CCn1ncc(CNc2[nH]cnc3nncc2-3)c1C	12.37
Cc1noc(CN(Cc2ccc3c(c2)OCCO3)Cc2ccco2)n1	3.061
CCN(CC)C(=O)CCn1ncc2c(Cl)cccc21	-0.5464
CN(C)C(=O)[C@H]1C[C@H]2OCC[C@H]2N(Cc2ccc3c(c2)OCO3)C1	9.852
CC(=O)c1ccccc1-c1nc(CC2CCN(C)CC2)no1	3.96
O=C(c1n[nH]c2ccccc12)N1CCCC1c1noc(C2CC2)n1 (stereo not drawn)	0.7519
N#Cc1cccnc1NCc1ccc(S(=O)(=O)NC2CC2)cc1	2.632
Cc1cc2c(cc1C(=O)N1CC[C@H](CO)[C@@H](O)C1)OCCO2	-3.306
Cc1cc(-c2cnc(NC3CC3)nc2-c2ccoc2C)on1	1.064
Cc1cc(CN2CCc3nc(C)n(C)c(=O)c3CC2)[nH]n1	2.646
CC(C(=O)Nc1nccs1)N(C)Cc1cccc(C#N)c1 (stereo not drawn)	0.8696

For reference, 5 entries once more:

structure	effect
Cc1oc(C(=O)O)cc1S(=O)(=O)Nc1c(F)cccc1-n1cccn1	3.734
Cc1cc2c(cc1C(=O)N1CC[C@H](CO)[C@@H](O)C1)OCCO2	-3.306
CCCc1cc(C(=O)N[C@H](C)[C@@H](O)c2ccc(O)cc2)n(C)n1	9.453
N#Cc1cc(S(N)(=O)=O)ccc1NC1CCc2ccc(F)cc21 (stereo not drawn)	13.79
CCS(=O)(=O)N1C[C@@H](C(=O)NC(C)C)[C@@]2(Cc3ccccc3C(=O)N2)C1	4.545